Reference: the supplement of paper PMC10338343
± gives the standard deviation. This is a selection; strong and weak results do not stand in their true shares. The uncertainty is large for many entries.

system: MILI (PIWIL2) piRISC loaded with piRNA #1 (26 nt); experiment: pre-steady-state target cleavage rate (min^-1); MIWI and MILI are mouse PIWI proteins and EfPiwi is from a freshwater sponge; tags in brackets are library labels; higher = faster piRNA-guided slicing of the target; conditions: guide: piRNA #1 5'p-UGAGGUAGUAGGUUGUAUAGUAUCCA; auxiliary factor: 500 nM mouse GTSF1
Summary of the method: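 Cleave-'n-Seq: a transcribed, DNA-blocked target RNA library (0.1 nM) was mixed with 1 nM active affinity-purified piRISC carrying one synthetic guide, with or without 500 nM GTSF1 partner protein, in HEPES–potassium acetate buffer at 33 °C for 0–8 or 0–960 min. Uncleaved targets were sequenced and normalised to depth and to weakly complementary targets. Three trials were pooled, and k3 was capped at 0.0001 min^-1. The pre-steady-state cleavage rate came from a burst-and-steady-state fit.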

Sequence	pre-steady-state target cleavage rate
GGAGACCUAUGAUAUGUACCUACCUACCUCA	0.000263 ± 0.011
GGAGAGGAUACUAUACAACUUACUACCUCA	0.0186 ± 0.0027
GGAGACCUAACCAUACAACCUACUACCUCA	0.12 ± 0.072
GGAGACCUAUGAUUACAACCUACUUGCUCA	0.00176 ± 0.0048
GGAGACGAUACUAUACAACCUUACUACCUCA	0.00239 ± 0.0042
GGAGUGGAUACUAUACAAGCUACUUCCUCA	0.0765 ± 0.0095
GGAGACCUUUCUAUACAACCUACUACCUCA	0.0895 ± 0.0097
GGAGACCAUACUAUACAACCUACUAACCUCA	0.226 ± 0.019
GGAGACCUAUCUAUACAACCUACUACCUCC [g2:g20:cont:t1C]	0.106 ± 0.011
GGAGACCUAUGAAUAGAACGUACUACCUCA	0.000477 ± 0.0079
GGAGACCUAUGAUAUGUACCAACUACCUCA	0.000149 ± 0.017
GGAGACCUAUGAAUUCAACCUACUAGCUCA	0.00124 ± 0.005
GGAGACCUAUGAUAUGUUGGUACUACGUGA	0.000255 ± 0.017
GGAGACCUAACUAUACAACCUACUCCCUCA	0.0941 ± 0.022
GGAGACCAUACAUAACAACCUACUACCUCA	0.0246 ± 0.0068
GGAGUGGAUUCUAUACUACCUACUACCUCA	0.155 ± 0.0078
GGAGACCUAUGAUAUGUACCGACUACCUCA	0.000252 ± 0.0088
GGAGACGAUACUAUACAACCUACUACACUCA	0.202 ± 0.03
GGAGACGAAACUAUACAUCCUACUACCUCA	0.255 ± 0.026
GGAGACCUUACUAUACAACCAUGUACCUCA	0.000992 ± 0.0083

Quoted from the listing.
pre-steady-state target cleavage rate, GGAGACGAUACUAUACAACCUUACUACCUCA is entered as 0.00239 ± 0.0042
pre-steady-state target cleavage rate, GGAGACCUAUCUAUACAACCUACUACCUCC [g2:g20:cont:t1C] is entered as 0.106 ± 0.011
pre-steady-state target cleavage rate, GGAGACGAUACUAUACAACCUACUACACUCA is entered as 0.202 ± 0.03

Later entries

Sequence	pre-steady-state target cleavage rate
GGAGACCUAUGAUAUGUUCCAACAACCUCA	0.000413 ± 0.01
GGAGACGAUACUAUACAACCAACUUCCUCA	0.00374 ± 0.0027
GGAGAGGAUACUAUACAUCCUAGUACCUCA	0.00265 ± 0.0048
GGAGAGGAGACUAUACAACCUACUACCUCA	0.25 ± 0.052
GGAGACCUAACUAUACAACCUACAACCUGA	0.00865 ± 0.0074
GGAGUCGAUACUAUACAACCUAGUACCUCA	0.0166 ± 0.0031
GGAGACGAUACUAUACAUCCUACUAGCUCA	0.173 ± 0.027
GGAGACGAUACUAUACAACCUACCUACCUCA	0.131 ± 0.011
GGAGACCUUACUAUACAACCUACUACCUCU [g2:g22:cont:t1U]	0.177 ± 0.017
GGAGAGGAUACUAUAGAUCCUACUACCUCA	0.242 ± 0.024
GGAGACGAUACUAUACAACCAACUAGCUCA	0.00312 ± 0.0048
GGAGACCUAUGAUAUGUACCUACUACCUCU [g2:g13:cont:t1U]	0.000166 ± 0.014
GGAGAGGAUACUUUACAUCCUACUACCUCA	0.253 ± 0.016
GGAGACCUAUGAUAUGUUGCUACUACCAGA	0.000246 ± 0.017
GGAGUGGAUACUAUACAACCUACUACCUGA	0.0915 ± 0.011
GGAGUGGAUUCUAUACAACCUUCUACCUCA	0.00777 ± 0.0028
GGAGACCUAUGAUAUGUUCCUCACUACCUCA	0.000115 ± 0.015
GGAGACCUAACUAUACAAGCUAGUACCUCA	0.0871 ± 0.019
GGAGUGGAAACUAUACUACCUACUACCUCA	0.193 ± 0.016
GGAGACCAUACUAUACUUCCUACUACCUCA	0.226 ± 0.021
